The target in the experiment is Flag-IRF3 (UniProt Q14653). The experiment is described as follows: proximity ligation; Duolink in situ PLA in HEK293T co-transfected for 24 h with Myc-USP5 and Flag-IRF3 constructs, then SeV (0.1 MOI) for 6 h; mouse anti-Flag and rabbit anti-Myc.

By UniProt entry, the sequences of proteins in these tests, tags left out. Where a name states a change or a piece, a line headed by the entry shows the natural chain unless it says otherwise.
UniProt Q14653: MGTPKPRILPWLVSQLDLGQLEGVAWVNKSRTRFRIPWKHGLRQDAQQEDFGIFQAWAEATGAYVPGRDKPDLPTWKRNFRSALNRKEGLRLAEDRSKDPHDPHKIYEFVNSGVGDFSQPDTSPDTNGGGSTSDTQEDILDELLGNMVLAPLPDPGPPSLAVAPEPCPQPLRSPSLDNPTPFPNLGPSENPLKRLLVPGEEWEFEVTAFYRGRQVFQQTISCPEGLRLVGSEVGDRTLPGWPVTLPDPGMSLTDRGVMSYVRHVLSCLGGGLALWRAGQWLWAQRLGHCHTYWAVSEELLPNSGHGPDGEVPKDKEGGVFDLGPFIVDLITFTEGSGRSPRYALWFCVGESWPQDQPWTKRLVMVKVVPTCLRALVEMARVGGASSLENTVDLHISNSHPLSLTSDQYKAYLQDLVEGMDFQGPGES
UniProt P45974: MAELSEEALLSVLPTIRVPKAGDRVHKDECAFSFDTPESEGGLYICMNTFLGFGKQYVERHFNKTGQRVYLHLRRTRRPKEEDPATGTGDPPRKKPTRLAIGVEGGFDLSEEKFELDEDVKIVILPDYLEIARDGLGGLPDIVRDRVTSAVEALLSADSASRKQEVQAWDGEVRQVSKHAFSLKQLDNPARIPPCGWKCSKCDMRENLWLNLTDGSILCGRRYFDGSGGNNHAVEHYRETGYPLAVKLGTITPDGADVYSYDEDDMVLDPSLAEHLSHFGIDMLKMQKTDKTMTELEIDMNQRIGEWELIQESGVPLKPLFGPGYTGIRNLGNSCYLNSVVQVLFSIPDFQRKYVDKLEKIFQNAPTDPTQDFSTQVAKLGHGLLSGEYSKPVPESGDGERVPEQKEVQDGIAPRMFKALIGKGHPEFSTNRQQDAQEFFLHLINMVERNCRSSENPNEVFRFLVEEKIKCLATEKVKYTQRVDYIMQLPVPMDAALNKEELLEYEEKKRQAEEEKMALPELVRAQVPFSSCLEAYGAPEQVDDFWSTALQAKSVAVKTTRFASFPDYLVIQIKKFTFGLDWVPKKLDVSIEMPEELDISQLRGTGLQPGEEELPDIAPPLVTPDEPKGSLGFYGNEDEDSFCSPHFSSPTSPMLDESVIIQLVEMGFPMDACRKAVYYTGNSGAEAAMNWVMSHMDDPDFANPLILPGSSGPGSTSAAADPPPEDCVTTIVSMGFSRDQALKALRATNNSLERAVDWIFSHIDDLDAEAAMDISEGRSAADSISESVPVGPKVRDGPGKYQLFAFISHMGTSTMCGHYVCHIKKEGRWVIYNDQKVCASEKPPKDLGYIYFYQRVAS

Results are given in words; binding and its absence hold for the method and conditions named. In cells and extracts the contact can be indirect. Binding can be weak; no strength is given.

Take “Myc-USP5-ΔUBA (from UniProt P45974) (enzyme)”: the binding entry was “binds”.
